# Values from PubChem BioAssay AID1159578 (Peter MacCallum Cancer Centre, 2015).
# Assay: 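siRNA pools altering how lymphatic endothelial cells close a scratch wound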 (primary screen)
# Cells: human lymphatic endothelial cells
# Knock-down reagent: siRNA pool against human genes, 40 nM
# Time to read-out: 48 h after transfection
# Measured: 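High-content imaging of dye-stained cells in a scratch assay measures filled wound area and nuclei per well; duplicate means given as ratio to mock and robust z-score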
# Reading the numbers: migration robust z-score: higher = faster migration into the scratch; migration relative to mock: higher = more scratch area covered than mock; nuclei per well: higher = more cells in the well
# Active means: 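Migration changed when robust z exceeds 2 or falls below -2 and mean nuclei number is at least 3300; otherwise not called changed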
# Meaning of the calls: active = migration changed; inactive = no migration change, or too few cells
# This is an unselected part of about 18,000 reagents. About 1,030 of all reagents (5.7%) count as active. 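Inactive calls also include pools with fewer than 3300 nuclei, whose migration was not assessed.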 Raw values are not corrected between plates. Reagent sequences are not shown.
Target gene,migration robust z-score,migration class with cell-count check,migration relative to mock,"nuclei per well, duplicate mean",activity call
HBE1 (hemoglobin subunit epsilon 1),-3.17,migration z below -2; enough cells,0.2,4404,active
CHRNA4 (cholinergic receptor nicotinic alpha 4 subunit),-0.16,migration z between -2 and 2; enough cells,0.78,5688,inactive
SPATA31E1 (SPATA31 subfamily E member 1),-0.01,migration z between -2 and 2; enough cells,0.88,4374,inactive
NSMCE4A (NSE4A component of SMC5/6 complex),0.24,migration z between -2 and 2; enough cells,0.95,6361,inactive
PLSCR4 (phospholipid scramblase 4),0.88,migration z between -2 and 2; enough cells,0.98,5150,inactive
CCNYL1 (cyclin Y like 1),0.52,migration z between -2 and 2; enough cells,1.01,4818,inactive
OSBPL9 (oxysterol binding protein like 9),1.46,migration z between -2 and 2; enough cells,1.27,5799,inactive
MTARC2 (mitochondrial amidoxime reducing component 2),-0.56,migration z between -2 and 2; enough cells,0.74,4419,inactive
PPIA (peptidylprolyl isomerase A),3.55,migration z above 2; enough cells,1.49,5470,active
TCAP (titin-cap),-1.36,migration z between -2 and 2; enough cells,0.53,5698,inactive
RRP8 (ribosomal RNA processing 8),1.55,migration z between -2 and 2; enough cells,1.29,5512,inactive
CDH4 (cadherin 4),-0.71,migration z between -2 and 2; enough cells,0.7,5944,inactive
CNOT9 (CCR4-NOT transcription complex subunit 9),-0.48,migration z between -2 and 2; enough cells,0.76,6520,inactive
OR5J2 (olfactory receptor family 5 subfamily J member 2),-1.76,migration z between -2 and 2; enough cells,0.43,4634,inactive
PPOX (protoporphyrinogen oxidase),-1.77,migration z between -2 and 2; enough cells,0.46,4751,inactive
KL (klotho),0.46,migration z between -2 and 2; enough cells,0.9,5456,inactive
FAM53A (family with sequence similarity 53 member A),-0.85,migration z between -2 and 2; enough cells,0.66,4780,inactive

Individual results from the list:
Result of FAM53A (family with sequence similarity 53 member A) in “migration robust z-score”: -0.85
Under “migration class with cell-count check”, CNOT9 (CCR4-NOT transcription complex subunit 9) reads migration z between -2 and 2; enough cells
Under “nuclei per well, duplicate mean”, PLSCR4 (phospholipid scramblase 4) has 5150
For “migration class with cell-count check”, KL (klotho) has migration z between -2 and 2; enough cells

Additional reagents follow:
Target gene,migration robust z-score,migration class with cell-count check,migration relative to mock,"nuclei per well, duplicate mean",activity call
H2BC21 (H2B clustered histone 21),0.99,migration z between -2 and 2; enough cells,1.15,5036,inactive
UCHL3 (ubiquitin C-terminal hydrolase L3),-0.93,migration z between -2 and 2; enough cells,0.62,4588,inactive
DNAJB13 (DnaJ heat shock protein family (Hsp40) member B13),0.98,migration z between -2 and 2; enough cells,1.14,5422,inactive
TPSG1 (tryptase gamma 1),0.42,migration z between -2 and 2; enough cells,0.88,5636,inactive
FAM43B (family with sequence similarity 43 member B),-0.24,migration z between -2 and 2; enough cells,0.82,4850,inactive
"PKD2 (polycystin 2, transient receptor potential cation channel)",-0.8,migration z between -2 and 2; enough cells,0.65,3674,inactive
ZNF526 (zinc finger protein 526),-0.26,migration z between -2 and 2; enough cells,0.82,5457,inactive
ACSL4 (acyl-CoA synthetase long chain family member 4),-0.96,migration z between -2 and 2; enough cells,0.62,4812,inactive
RTN4 (reticulon 4),0.96,migration z between -2 and 2; enough cells,1.13,6533,inactive
CMTR2 (cap methyltransferase 2),1.02,migration z between -2 and 2; enough cells,1.15,6340,inactive
GRM1 (glutamate metabotropic receptor 1),-0.1,migration z between -2 and 2; enough cells,0.78,6219,inactive
MCTS1 (MCTS1 re-initiation and release factor),-1.19,migration z between -2 and 2; enough cells,0.58,5482,inactive
RAP1GAP2 (RAP1 GTPase activating protein 2),-0.08,migration z between -2 and 2; enough cells,0.86,6106,inactive
EPB42 (erythrocyte membrane protein band 4.2),0.08,migration z between -2 and 2; enough cells,0.82,5388,inactive
SLC41A1,0.57,migration z between -2 and 2; enough cells,0.92,5516,inactive
CRISPLD1 (cysteine rich secretory protein LCCL domain containing 1),0.86,migration z between -2 and 2; enough cells,1.12,7242,inactive
GNAI3 (G protein subunit alpha i3),-0.31,migration z between -2 and 2; enough cells,0.74,5280,inactive
RFC2 (replication factor C subunit 2),0.44,migration z between -2 and 2; enough cells,0.89,5595,inactive
ERAS (ES cell expressed Ras),-0.47,migration z between -2 and 2; enough cells,0.76,6102,inactive
CYBRD1 (cytochrome b reductase 1),-0.83,migration z between -2 and 2; enough cells,0.64,5474,inactive
TLR8 (toll like receptor 8),1.17,migration z between -2 and 2; enough cells,1.03,5034,inactive
"CDC37 (cell division cycle 37, HSP90 cochaperone)",0.58,migration z between -2 and 2; enough cells,1.04,5912,inactive
